Results: PMC5063989
Results are given in words; binding and its absence hold for the method and conditions named. Binding seen in cells or lysates may run through a third protein. Some results given as binding are weak or reduced against the parent protein; the word gives no strength.

By UniProt entry, the sequences of proteins in these tests, tags left out.
UniProt P63025: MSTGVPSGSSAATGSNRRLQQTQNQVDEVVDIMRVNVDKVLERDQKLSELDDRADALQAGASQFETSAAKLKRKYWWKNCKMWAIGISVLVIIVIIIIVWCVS

T1: Na+/K+/2Cl- co-transporter NKCC2 (rat (endogenous in TAL suspensions)) (UniProt P55016)
T1 sequence: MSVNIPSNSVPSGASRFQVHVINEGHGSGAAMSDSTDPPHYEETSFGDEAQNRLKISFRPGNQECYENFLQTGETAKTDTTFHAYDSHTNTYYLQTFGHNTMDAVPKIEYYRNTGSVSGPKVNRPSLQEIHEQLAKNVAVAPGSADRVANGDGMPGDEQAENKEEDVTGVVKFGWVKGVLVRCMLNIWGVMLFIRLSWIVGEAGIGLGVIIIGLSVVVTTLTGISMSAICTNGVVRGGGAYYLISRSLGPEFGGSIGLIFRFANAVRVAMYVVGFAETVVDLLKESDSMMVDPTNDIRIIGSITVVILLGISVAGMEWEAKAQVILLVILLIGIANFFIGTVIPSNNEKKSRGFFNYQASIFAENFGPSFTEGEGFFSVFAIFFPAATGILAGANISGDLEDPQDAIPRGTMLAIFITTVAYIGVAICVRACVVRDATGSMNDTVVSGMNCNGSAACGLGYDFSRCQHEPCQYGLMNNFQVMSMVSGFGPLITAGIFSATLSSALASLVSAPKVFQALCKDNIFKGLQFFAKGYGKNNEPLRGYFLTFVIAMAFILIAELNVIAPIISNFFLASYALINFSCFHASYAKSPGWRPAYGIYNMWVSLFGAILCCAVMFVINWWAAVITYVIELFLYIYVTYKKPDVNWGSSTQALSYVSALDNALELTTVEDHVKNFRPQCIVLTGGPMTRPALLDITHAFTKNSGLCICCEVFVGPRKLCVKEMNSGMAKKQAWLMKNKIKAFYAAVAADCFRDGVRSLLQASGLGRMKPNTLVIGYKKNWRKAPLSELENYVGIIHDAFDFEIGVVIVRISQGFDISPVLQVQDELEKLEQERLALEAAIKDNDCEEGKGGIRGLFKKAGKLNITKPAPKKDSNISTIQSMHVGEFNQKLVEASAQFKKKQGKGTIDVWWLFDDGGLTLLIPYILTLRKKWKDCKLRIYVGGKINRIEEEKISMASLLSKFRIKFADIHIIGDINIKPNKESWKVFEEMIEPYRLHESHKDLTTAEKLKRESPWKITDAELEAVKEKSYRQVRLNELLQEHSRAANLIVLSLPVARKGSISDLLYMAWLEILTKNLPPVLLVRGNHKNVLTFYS


Assays:
[1] = biological target: T1, Na+/K+/2Cl- co-transporter NKCC2 (rat (endogenous in TAL suspensions)); test: co-IP; endogenous NKCC2 immunoprecipitated from 200 ug of TAL lysate with rabbit IgG against NKCC2, overnight at 4 C, protein G/protein A agarose; buffer 100 mM NaCl, 50 mM HEPES pH 7.5, 5 mM EDTA, 1% Triton X-100, 1% CHAPS; washes incl. 500 mM Na+ HEPES; Western blot for NKCC2 and VAMP3
[2] = biological target: Vesicle-associated membrane protein 3 (VAMP3) (rat (endogenous in TAL suspensions)) (UniProt P63025); test: co-IP; reciprocal: endogenous VAMP3 immunoprecipitated from 100 ug of TAL lysate with 5 ug rabbit IgG against VAMP3; Western blot for NKCC2 and VAMP3 with rabbit antibodies

| Molecule | binding [1] | binding [2] |
| --- | --- | --- |
| Vesicle-associated membrane protein 3 (VAMP3) (from UniProt P63025 1-103) | binds |  |
| Na+/K+/2Cl- co-transporter NKCC2 (protein, UniProt P55016 1-1095) MSVNIPSNSVPSGASRFQVHVINEGHGSGAAMSDSTDPPHYEETSFGDEAQNRLKISFRPGNQECYENFLQTGETAKTDTTFHAYDSHTNTYYLQTFGHNTMDAVPKIEYYRNTGSVSGPKVNRPSLQEIHEQLAKNVAVAPGSADRVANGDGMPGDEQAENKEEDVTGVVKFGWVKGVLVRCMLNIWGVMLFIRLSWIVGEAGIGLGVIIIGLSVVVTTLTGISMSAICTNGVVRGGGAYYLISRSLGPEFGGSIGLIFRFANAVRVAMYVVGFAETVVDLLKESDSMMVDPTNDIRIIGSITVVILLGISVAGMEWEAKAQVILLVILLIGIANFFIGTVIPSNNEKKSRGFFNYQASIFAENFGPSFTEGEGFFSVFAIFFPAATGILAGANISGDLEDPQDAIPRGTMLAIFITTVAYIGVAICVRACVVRDATGSMNDTVVSGMNCNGSAACGLGYDFSRCQHEPCQYGLMNNFQVMSMVSGFGPLITAGIFSATLSSALASLVSAPKVFQALCKDNIFKGLQFFAKGYGKNNEPLRGYFLTFVIAMAFILIAELNVIAPIISNFFLASYALINFSCFHASYAKSPGWRPAYGIYNMWVSLFGAILCCAVMFVINWWAAVITYVIELFLYIYVTYKKPDVNWGSSTQALSYVSALDNALELTTVEDHVKNFRPQCIVLTGGPMTRPALLDITHAFTKNSGLCICCEVFVGPRKLCVKEMNSGMAKKQAWLMKNKIKAFYAAVAADCFRDGVRSLLQASGLGRMKPNTLVIGYKKNWRKAPLSELENYVGIIHDAFDFEIGVVIVRISQGFDISPVLQVQDELEKLEQERLALEAAIKDNDCEEGKGGIRGLFKKAGKLNITKPAPKKDSNISTIQSMHVGEFNQKLVEASAQFKKKQGKGTIDVWWLFDDGGLTLLIPYILTLRKKWKDCKLRIYVGGKINRIEEEKISMASLLSKFRIKFADIHIIGDINIKPNKESWKVFEEMIEPYRLHESHKDLTTAEKLKRESPWKITDAELEAVKEKSYRQVRLNELLQEHSRAANLIVLSLPVARKGSISDLLYMAWLEILTKNLPPVLLVRGNHKNVLTFYS |  | binds |
